Laboratory results taken from publication PMC5990521, “Structural basis of DUX4/IGH-driven transactivation”.
For at least one entry, the source does not settle the construct or the ends of the probe. A negative result means that nothing was seen under these conditions.

Chains of the proteins cited; added tags and fusions are not shown. Residues count along the entry.
UniProt Q9UBX2, 19-153, stated change not applied: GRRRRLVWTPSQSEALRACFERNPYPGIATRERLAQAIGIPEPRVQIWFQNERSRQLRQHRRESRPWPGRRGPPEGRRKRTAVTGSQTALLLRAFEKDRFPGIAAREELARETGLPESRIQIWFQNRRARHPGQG

Target: DUX4 HD1-HD2 poly-Glu mutant (human) (UniProt Q9UBX2)
Assay: BLI
Conditions: biotin; BLI on Octet Red 96, biotin-DNA-DRE on SA sensors, protein 0.5-32 uM (HD2) or 0.25-16 uM (HD1-HD2); recombinant protein; residues 19-153

TTCTAATCTAATCA (double strand) [biotin-DNA-DRE (BLI)]
binding result: no binding
